PubChem BioAssay AID1224830 | NIAID, 2016
Shown is an unselected part of about 18,000 reagents. About 2,900 of them (16%) were called active. 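Calls are made per well; low scores hint the gene aids the LPS response, high scores that it dampens it.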 Entries without a mark were called inactive. Repeated entries: four replicate wells of each siRNA pool.

- Aim: 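Host factors that control LPS-induced TNF expression in human macrophages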 (primary screen)
- Cells: human THP-1 monocytic leukaemia cells, TNF dual-luciferase reporter clone, PMA-differentiated to macrophage-like cells
- Knock-down reagent: siRNA pool against human genes, 50 nM
- Timing: LPS for 4 h, given about 3 days after siRNA transfection
- Challenge: bacterial LPS (TLR4 ligand), 10 ng/ml
- Measurement: 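TNF firefly reporter luminescence divided by renilla, normalised to the plate median, then turned into a robust z-score for each replicate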
- Reading the numbers: TNF reporter robust z-score: higher = stronger TNF reporter response to LPS
- Rule for the call: 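a well is active when its z-score exceeds 2.8 or falls below -1.5; control wells carry no call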

Knock-down of LPIN2 gave: TNF reporter robust z-score -0.62.
Depletion of LPIN2 came out at: TNF reporter robust z-score 0.48.
For LPIN2, the entry reads TNF reporter robust z-score 1.53.
Depletion of LPIN2 gave: TNF reporter robust z-score -0.31.
Silencing of ABHD17AP1 gave: TNF reporter robust z-score 0.87.
For ABHD17AP1, the values are TNF reporter robust z-score 1.09.
Silencing of ABHD17AP1 resulted in: TNF reporter robust z-score 0.35.
Against ABHD17AP1, the values are TNF reporter robust z-score 2.37.
After knock-down of ACIN1 the results were TNF reporter robust z-score -1.73 (active).
For ACIN1, the entry reads TNF reporter robust z-score -1.53 (active).
For ACIN1 the deposit lists TNF reporter robust z-score -1.52 (active).
After knock-down of ACIN1, the screen gave TNF reporter robust z-score -1.13.
Silencing of SMR3B resulted in: TNF reporter robust z-score 0.18.
After knock-down of SMR3B, the record shows TNF reporter robust z-score -0.31.
SMR3B showed TNF reporter robust z-score 0.53.
Silencing of SMR3B came out at: TNF reporter robust z-score 0.14.
With knock-down of EIF4E2, the screen gave TNF reporter robust z-score -0.28.
After knock-down of EIF4E2 the results were TNF reporter robust z-score -0.25.
Depletion of EIF4E2 gave: TNF reporter robust z-score -1.06.
With knock-down of EIF4E2 the results were TNF reporter robust z-score -0.62.
With knock-down of ABCG1 the results were TNF reporter robust z-score 0.14.
Knock-down of ABCG1 gave: TNF reporter robust z-score 1.1.
Against ABCG1, the entry reads TNF reporter robust z-score 0.09.
ABCG1 scored TNF reporter robust z-score 0.7.

Already shown: entries from further up.
LPIN2 — TNF reporter robust z-score = -0.31
ABHD17AP1 — TNF reporter robust z-score = 0.87
ABHD17AP1 — TNF reporter robust z-score = 1.09
ABHD17AP1 — TNF reporter robust z-score = 0.35
ABHD17AP1 — TNF reporter robust z-score = 2.37
ACIN1 — TNF reporter robust z-score = -1.73 (active)
ACIN1 — TNF reporter robust z-score = -1.53 (active)
ACIN1 — TNF reporter robust z-score = -1.52 (active)

Additional reagents follow:
Against HHEX, the values are TNF reporter robust z-score 0.
After knock-down of HHEX the results were TNF reporter robust z-score 0.31.
Against HHEX, the values are TNF reporter robust z-score 0.33.
For HHEX, the values are TNF reporter robust z-score 0.52.
With knock-down of SLC17A2, the screen gave TNF reporter robust z-score 0.66.
For SLC17A2, the values are TNF reporter robust z-score 0.85.
Silencing of SLC17A2 resulted in: TNF reporter robust z-score 1.4.
After knock-down of SLC17A2 the results were TNF reporter robust z-score 0.69.
For CRYGD, the values are TNF reporter robust z-score 0.61.
Against CRYGD the deposit lists TNF reporter robust z-score 1.33.
CRYGD showed TNF reporter robust z-score 1.62.
CRYGD showed TNF reporter robust z-score 1.26.
With knock-down of TICAM1 the results were TNF reporter robust z-score -0.8.
Against TICAM1, the values are TNF reporter robust z-score -0.56.
Silencing of TICAM1 came out at: TNF reporter robust z-score -1.37.
TICAM1 scored TNF reporter robust z-score -1.14.
Knock-down of PHLPP2 gave: TNF reporter robust z-score 0.08.
PHLPP2 scored TNF reporter robust z-score 0.5.
After knock-down of PHLPP2, the record shows TNF reporter robust z-score 0.92.
Against PHLPP2, the values are TNF reporter robust z-score 1.47.
RABIF scored TNF reporter robust z-score 1.47.
For RABIF the deposit lists TNF reporter robust z-score 1.22.
For RABIF, the values are TNF reporter robust z-score 1.96.
Knock-down of RABIF came out at: TNF reporter robust z-score 2.11.
PRR3 gave TNF reporter robust z-score 0.64.
For PRR3, the entry reads TNF reporter robust z-score 1.
Depletion of PRR3 resulted in: TNF reporter robust z-score 0.15.
Silencing of PRR3 gave: TNF reporter robust z-score 1.21.
Depletion of DCP2 resulted in: TNF reporter robust z-score -0.97.
Against DCP2, the entry reads TNF reporter robust z-score -0.31.
Depletion of DCP2 resulted in: TNF reporter robust z-score -0.13.
DCP2 showed TNF reporter robust z-score -0.18.
Against LMF1, the entry reads TNF reporter robust z-score -0.61.
Silencing of LMF1 gave: TNF reporter robust z-score -0.48.
Knock-down of LMF1 came out at: TNF reporter robust z-score -0.89.
LMF1 gave TNF reporter robust z-score -0.13.
